Drug screen on melanoma cell lines: cell count

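Human melanoma cells were exposed to two drugs together for 72 h in 1,536-well plates and read by automated microscopy after fixing and staining. Values are the number of DAPI-stained nuclei as a percentage of the DMSO control: 100 is no effect, lower means fewer cells. Every drug was used at one fixed concentration, the higher of two screened. These are primary screening values without error estimates.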
An unselected part of the screen is shown.

Drug key:
vorinostat, 0.4 µM: O=C(CCCCCCC(=O)Nc1ccccc1)NO
MK-1775, 0.1 µM: C=CCn1c(=O)c2cnc(Nc3ccc(N4CCN(C)CC4)cc3)nc2n1-c1cccc(C(C)(C)O)n1
decitabine, 0.5 µM: Nc1ncn([C@H]2C[C@H](O)[C@@H](CO)O2)c(=O)n1
BI-D1870, 1 µM: CC(C)CCN1c2nc(Nc3cc(F)c(O)c(F)c3)ncc2N(C)C(=O)C1C (stereo not shown)
tanespimycin, 0.01 µM: C=CCNC1=C2C[C@@H](C)C[C@H](OC)[C@H](O)[C@@H](C)/C=C(\C)[C@H](OC(N)=O)[C@@H](OC)/C=C\C=C(/C)C(=O)NC(=CC1=O)C2=O
lestaurtinib, 0.02 µM: C[C@]12O[C@H](C[C@]1(O)CO)n1c3ccccc3c3c4c(c5c6ccccc6n2c5c31)CNC4=O
fludarabine, 1 µM: Nc1nc(F)nc2c1ncn2[C@@H]1O[C@H](CO)[C@@H](O)[C@@H]1O

| # | Drugs | COLO 800 | COLO 829 | C32 | COLO 792 | WM3619 | WM451Lu |
|---|---|---|---|---|---|---|---|
| 1 | MK-1775 + vorinostat | 61.2 | 53.9 | 85.6 | 65.1 | 63.8 | 86.5 |
| 2 | vorinostat + BI-D1870 | 42.1 | 89.9 | 101 | 76.3 | 66.8 | 85.0 |
| 3 | vorinostat + fludarabine | 88.9 | 78.0 | 94.9 | 84.4 | 64.9 | 75.2 |
| 4 | decitabine + vorinostat | 64.3 | 50.5 | 108 | 48.3 | 72.7 | 75.0 |
| 5 | vorinostat + tanespimycin | 75.1 | 60.5 | 44.7 | 68.9 | 51.0 | 76.4 |
| 6 | lestaurtinib + BI-D1870 | 50.2 | 59.4 | 82.8 | 49.0 | 52.4 | 75.8 |
| 7 | MK-1775 + tanespimycin | 148 | 73.6 | 9.9 | 65.3 | 38.6 | 52.4 |
| 8 | tanespimycin + fludarabine | 57.4 | 62.8 | 34.4 | 47.2 | 41.9 | 77.5 |
| 9 | MK-1775 + BI-D1870 | 47.3 | 79.2 | 91.5 | 79.7 | 42.6 | 78.0 |
| 10 | decitabine + BI-D1870 | 57.4 | 95.3 | 104 | 99.7 | 62.5 | 84.8 |
| 11 | BI-D1870 + tanespimycin | 32.7 | 79.8 | 12.5 | 37.8 | 50.7 | 63.3 |
| 12 | decitabine + MK-1775 | 71.7 | 49.1 | 91.2 | 52.5 | 144 | 72.1 |
| 13 | MK-1775 + lestaurtinib | 108 | 90.5 | 84.8 | 43.8 | 24.4 | 67.6 |
| 14 | lestaurtinib + vorinostat | 62.8 | 88.2 | 131 | 53.5 | 75.1 | 80.0 |
| 15 | fludarabine + BI-D1870 | 69.3 | 96.2 | 90.5 | 83.9 | 77.3 | 74.7 |
| 16 | lestaurtinib + tanespimycin | 74.1 | 63.9 | 16.1 | 32.6 | 57.1 | 75.6 |
| 17 | fludarabine + lestaurtinib | 48.2 | 102 | 87.9 | 51.5 | 52.5 | 102 |
| 18 | MK-1775 + fludarabine | 51.8 | 83.5 | 75.9 | 49.1 | 22.3 | 62.8 |
| 19 | decitabine + tanespimycin | 66.1 | 61.7 | 20.9 | 51.0 | 41.2 | 44.9 |
| 20 | fludarabine + decitabine | 80.5 | 66.7 | 70.9 | 50.5 | 74.2 | 71.4 |

Once more, the final 2:

Drugs	COLO 800	COLO 829	C32	COLO 792	WM3619	WM451Lu
decitabine + tanespimycin	66.1	61.7	20.9	51.0	41.2	44.9
fludarabine + decitabine	80.5	66.7	70.9	50.5	74.2	71.4

Data from the primary screen of doi:10.1371/journal.pone.0140310, rounded.